Experimental data from the supplement of paper PMC10849652.
Some of the results follow.

Chains of the proteins cited; added tags and fusions are not shown. Lines headed by an entry give the natural chain unless they say otherwise; changes in a name come on top.
UniProt A6NHR9: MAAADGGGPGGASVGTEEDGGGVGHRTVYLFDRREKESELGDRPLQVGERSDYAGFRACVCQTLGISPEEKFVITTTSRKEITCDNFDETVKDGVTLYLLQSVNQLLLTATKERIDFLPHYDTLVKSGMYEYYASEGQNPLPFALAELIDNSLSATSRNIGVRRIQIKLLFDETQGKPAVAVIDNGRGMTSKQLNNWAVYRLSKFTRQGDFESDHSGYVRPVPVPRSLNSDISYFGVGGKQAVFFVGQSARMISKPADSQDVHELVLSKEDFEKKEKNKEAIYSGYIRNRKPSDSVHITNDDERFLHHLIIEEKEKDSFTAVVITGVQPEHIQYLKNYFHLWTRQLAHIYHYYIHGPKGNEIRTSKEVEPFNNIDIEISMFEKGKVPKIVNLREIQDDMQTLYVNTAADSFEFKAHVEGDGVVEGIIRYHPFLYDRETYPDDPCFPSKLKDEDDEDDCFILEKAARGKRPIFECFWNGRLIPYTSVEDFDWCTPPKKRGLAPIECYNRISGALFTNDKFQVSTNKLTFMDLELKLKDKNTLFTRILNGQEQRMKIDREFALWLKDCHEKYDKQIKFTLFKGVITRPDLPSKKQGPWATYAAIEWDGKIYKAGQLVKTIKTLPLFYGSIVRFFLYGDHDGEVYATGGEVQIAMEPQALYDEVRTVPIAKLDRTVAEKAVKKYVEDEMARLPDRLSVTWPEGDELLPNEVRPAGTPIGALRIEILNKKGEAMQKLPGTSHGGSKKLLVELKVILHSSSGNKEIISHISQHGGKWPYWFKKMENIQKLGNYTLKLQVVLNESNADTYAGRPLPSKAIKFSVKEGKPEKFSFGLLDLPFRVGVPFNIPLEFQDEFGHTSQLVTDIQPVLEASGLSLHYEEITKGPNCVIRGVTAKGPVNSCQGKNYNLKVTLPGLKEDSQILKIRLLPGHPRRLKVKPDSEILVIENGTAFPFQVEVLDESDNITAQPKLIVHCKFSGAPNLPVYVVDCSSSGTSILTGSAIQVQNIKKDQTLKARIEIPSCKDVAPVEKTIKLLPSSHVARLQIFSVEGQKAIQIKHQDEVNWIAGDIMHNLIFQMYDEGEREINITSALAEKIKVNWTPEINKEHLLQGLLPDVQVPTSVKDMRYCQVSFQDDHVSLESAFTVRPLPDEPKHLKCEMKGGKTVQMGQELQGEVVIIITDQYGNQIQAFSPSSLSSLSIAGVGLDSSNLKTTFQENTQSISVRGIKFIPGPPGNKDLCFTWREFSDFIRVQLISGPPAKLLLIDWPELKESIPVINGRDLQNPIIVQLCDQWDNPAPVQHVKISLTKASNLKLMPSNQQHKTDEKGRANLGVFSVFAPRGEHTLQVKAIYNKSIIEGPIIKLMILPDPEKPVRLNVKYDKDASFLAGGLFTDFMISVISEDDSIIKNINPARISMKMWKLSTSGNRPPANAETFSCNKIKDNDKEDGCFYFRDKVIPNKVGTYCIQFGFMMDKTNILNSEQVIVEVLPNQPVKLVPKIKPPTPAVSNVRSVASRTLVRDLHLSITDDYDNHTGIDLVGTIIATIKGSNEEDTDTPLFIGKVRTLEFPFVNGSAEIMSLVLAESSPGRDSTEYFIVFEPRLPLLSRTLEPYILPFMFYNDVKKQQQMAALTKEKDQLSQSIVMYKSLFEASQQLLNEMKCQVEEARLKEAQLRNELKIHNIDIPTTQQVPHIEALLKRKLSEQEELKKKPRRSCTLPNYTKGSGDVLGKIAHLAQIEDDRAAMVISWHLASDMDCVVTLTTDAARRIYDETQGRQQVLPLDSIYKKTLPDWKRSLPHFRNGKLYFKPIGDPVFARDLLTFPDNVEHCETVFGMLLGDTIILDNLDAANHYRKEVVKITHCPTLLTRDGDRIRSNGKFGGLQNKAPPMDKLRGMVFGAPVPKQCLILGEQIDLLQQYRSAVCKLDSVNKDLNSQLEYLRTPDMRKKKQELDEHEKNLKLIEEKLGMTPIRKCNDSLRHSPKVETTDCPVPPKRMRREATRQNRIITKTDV
UniProt P0C7P3: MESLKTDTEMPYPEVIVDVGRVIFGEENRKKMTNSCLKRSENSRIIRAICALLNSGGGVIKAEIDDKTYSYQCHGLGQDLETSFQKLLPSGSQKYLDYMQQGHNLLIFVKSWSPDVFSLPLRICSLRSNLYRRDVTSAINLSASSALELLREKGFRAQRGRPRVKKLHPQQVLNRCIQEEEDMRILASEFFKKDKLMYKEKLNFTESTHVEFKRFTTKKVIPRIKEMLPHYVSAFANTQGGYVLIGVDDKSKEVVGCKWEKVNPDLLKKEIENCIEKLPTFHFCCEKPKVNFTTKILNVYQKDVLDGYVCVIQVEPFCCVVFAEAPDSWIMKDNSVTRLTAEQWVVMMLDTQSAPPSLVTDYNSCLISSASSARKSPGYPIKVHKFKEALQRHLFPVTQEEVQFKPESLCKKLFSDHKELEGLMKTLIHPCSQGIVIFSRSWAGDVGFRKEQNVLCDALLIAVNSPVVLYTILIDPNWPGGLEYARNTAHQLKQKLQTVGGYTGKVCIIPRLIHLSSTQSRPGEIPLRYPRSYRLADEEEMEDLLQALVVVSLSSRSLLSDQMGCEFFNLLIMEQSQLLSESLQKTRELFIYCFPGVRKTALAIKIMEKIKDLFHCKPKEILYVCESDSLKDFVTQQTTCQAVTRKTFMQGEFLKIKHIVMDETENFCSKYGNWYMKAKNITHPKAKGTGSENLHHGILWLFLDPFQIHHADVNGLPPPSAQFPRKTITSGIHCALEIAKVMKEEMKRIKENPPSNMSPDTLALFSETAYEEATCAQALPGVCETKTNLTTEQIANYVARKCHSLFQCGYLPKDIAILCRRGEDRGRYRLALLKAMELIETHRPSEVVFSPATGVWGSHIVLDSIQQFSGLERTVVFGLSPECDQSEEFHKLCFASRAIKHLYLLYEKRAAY
UniProt Q9NXE4: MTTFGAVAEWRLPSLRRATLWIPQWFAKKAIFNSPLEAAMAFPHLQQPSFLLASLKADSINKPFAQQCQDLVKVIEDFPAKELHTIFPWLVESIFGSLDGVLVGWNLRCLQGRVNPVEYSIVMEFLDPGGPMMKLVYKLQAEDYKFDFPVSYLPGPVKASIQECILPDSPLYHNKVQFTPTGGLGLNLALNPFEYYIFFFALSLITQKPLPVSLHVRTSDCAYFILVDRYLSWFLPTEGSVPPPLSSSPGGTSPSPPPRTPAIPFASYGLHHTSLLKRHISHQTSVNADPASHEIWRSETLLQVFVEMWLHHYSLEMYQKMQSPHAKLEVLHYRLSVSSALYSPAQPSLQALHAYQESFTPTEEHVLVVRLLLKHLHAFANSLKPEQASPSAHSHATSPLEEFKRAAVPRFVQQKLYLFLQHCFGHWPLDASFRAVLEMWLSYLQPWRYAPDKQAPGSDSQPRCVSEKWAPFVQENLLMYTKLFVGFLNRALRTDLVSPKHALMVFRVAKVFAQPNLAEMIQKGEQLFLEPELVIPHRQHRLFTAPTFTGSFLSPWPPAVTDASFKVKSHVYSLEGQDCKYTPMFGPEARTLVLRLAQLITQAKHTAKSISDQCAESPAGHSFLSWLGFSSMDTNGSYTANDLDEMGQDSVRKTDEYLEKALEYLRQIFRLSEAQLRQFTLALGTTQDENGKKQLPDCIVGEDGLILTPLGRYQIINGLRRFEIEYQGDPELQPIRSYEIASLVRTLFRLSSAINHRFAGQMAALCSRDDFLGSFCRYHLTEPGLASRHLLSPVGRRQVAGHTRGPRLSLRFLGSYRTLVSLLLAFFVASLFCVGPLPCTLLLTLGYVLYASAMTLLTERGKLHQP
UniProt Q969G3, whole entry, looked up: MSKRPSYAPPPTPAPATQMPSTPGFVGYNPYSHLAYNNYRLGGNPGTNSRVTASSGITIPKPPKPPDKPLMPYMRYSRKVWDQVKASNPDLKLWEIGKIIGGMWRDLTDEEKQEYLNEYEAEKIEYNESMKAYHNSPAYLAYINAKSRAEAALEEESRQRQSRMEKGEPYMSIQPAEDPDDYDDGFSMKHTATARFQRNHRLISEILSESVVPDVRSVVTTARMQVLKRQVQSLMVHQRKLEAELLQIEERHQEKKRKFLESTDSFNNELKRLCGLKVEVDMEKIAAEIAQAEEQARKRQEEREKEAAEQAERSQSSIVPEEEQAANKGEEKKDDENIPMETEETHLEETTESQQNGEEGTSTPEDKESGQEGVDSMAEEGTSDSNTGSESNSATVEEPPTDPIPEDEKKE
UniProt Q9Y5W9: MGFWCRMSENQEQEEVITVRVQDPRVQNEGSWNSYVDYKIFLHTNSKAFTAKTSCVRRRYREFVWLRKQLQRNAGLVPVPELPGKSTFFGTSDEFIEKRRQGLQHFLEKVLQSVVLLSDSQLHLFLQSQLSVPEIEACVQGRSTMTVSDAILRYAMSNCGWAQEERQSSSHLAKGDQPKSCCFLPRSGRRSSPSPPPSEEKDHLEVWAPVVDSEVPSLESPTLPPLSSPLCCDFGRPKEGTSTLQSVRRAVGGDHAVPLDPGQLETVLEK
UniProt Q9Y5X3: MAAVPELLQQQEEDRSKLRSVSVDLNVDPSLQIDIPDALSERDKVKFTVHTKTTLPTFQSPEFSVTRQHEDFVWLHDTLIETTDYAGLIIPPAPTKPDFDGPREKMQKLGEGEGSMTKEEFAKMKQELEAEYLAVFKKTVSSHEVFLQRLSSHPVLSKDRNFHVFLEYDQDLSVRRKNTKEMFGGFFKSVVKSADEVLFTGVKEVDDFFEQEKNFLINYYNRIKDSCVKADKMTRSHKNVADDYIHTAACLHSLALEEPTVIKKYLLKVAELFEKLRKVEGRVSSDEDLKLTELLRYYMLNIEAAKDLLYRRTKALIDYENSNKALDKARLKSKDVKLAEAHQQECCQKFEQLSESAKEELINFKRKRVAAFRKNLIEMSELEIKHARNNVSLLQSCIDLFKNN
UniProt P19634, whole entry, looked up: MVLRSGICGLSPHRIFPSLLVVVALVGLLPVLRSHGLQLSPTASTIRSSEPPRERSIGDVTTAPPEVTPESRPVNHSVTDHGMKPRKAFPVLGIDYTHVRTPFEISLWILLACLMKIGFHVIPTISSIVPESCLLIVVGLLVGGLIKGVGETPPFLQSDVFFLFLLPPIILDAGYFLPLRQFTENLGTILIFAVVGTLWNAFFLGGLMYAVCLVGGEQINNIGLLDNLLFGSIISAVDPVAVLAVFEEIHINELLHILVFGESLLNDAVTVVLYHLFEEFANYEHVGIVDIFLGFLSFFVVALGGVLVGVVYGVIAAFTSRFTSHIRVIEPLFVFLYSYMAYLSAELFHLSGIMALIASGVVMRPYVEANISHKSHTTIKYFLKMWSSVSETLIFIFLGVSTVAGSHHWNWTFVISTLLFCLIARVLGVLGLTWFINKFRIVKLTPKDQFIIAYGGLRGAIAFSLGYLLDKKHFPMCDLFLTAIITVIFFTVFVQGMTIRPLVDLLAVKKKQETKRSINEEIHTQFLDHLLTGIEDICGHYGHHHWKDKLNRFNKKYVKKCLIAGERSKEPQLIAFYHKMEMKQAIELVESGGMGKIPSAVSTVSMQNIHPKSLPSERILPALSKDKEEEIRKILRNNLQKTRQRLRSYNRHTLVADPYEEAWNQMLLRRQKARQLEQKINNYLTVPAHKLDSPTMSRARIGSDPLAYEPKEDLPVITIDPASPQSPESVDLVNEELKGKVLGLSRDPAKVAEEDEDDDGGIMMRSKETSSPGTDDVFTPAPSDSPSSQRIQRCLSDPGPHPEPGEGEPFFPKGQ
UniProt Q02086: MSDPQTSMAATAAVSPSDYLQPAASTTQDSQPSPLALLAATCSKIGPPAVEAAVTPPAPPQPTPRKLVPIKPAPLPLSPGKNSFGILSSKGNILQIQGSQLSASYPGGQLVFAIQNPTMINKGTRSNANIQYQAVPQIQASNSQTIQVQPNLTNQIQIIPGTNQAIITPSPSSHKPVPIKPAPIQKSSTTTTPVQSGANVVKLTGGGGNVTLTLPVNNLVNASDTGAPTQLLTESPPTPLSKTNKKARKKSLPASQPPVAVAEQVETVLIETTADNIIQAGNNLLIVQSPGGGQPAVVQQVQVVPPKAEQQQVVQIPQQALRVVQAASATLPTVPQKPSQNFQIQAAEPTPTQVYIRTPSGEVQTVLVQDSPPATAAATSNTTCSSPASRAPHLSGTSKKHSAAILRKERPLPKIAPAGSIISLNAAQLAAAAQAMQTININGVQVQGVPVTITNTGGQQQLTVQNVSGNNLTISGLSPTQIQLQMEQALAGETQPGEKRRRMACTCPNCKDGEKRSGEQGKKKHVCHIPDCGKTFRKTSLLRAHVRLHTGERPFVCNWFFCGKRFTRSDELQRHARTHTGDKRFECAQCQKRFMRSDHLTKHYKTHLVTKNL

Experiments:
Assay in all cases: log2 fold change, soluble protein after heating vs DMSO (PISA); higher = thermal stabilisation; K562 cells, 10 uM, 30 min; active = over 0.2 and 3.5 SD of the protein, either way, in both replicates (recomputed)
[1] = compound: CC1=C(C=C(C=C1)NC(=O)C2=CC(=CC=C2)C(C)(C)C#N)NC3=CC4=C(C=C3)N=CN(C4=O)C
Procedure, shortened: (§1)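 K562 cells (2×10^6 cells/mL) were treated with 10 μM compound for 30 min, and aliquots were heated for 3 min over 48°C-58°C. Pooled aliquots were extracted in PBS with 0.5% NP-40 at 4°C, and the supernatant after 21,000xg for 90 min was measured by TMTpro 16plex LC-MS/MS with channel sums equalised. Reported thermal stability, relative to control samples and from duplicates, is a log2 fold change.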

[2] = compound: CC1=C(C=C(C=C1)NC(=O)C2=CC(=CC=C2)N(C)C)NC(=O)C3=CC=C(C=C3)O
Procedure, shortened: as §1

[3] = compound: CC1=CC=C(C=C1)SC2=C3C=C(SC3=CN=C2)C(=O)N
Procedure, shortened: as §1

[4] = compound: CC1=NC(=CC=C1)C2=C(N=C(N2)C(C)(C)C)C3=CC4=NC=CN=C4C=C3
Procedure, shortened: as §1

Nexturastat A = compound: CCCCN(Cc1ccc(C(=O)NO)cc1)C(=O)Nc1ccccc1 [Nexturastat A]
Procedure, shortened: as §1

vemurafenib = compound: CCCS(=O)(=O)Nc1ccc(F)c(C(=O)c2c[nH]c3ncc(-c4ccc(Cl)cc4)cc23)c1F [vemurafenib]
Procedure, shortened: as §1

[5] = compound: CCCS(=O)(=O)Nc1ccc(F)c(C(=O)c2c[nH]c3ncc(Cl)cc23)c1F
Procedure, shortened: as §1

[6] = compound: CCCc1cc(C)[nH]c(=O)c1CNC(=O)c1cc(-c2ccnc(N3CCN(C)CC3)c2)cc2c1cnn2C(C)C
Procedure, shortened: as §1

givinostat = compound: CCN(CC)Cc1ccc2cc(COC(=O)Nc3ccc(C(=O)NO)cc3)ccc2c1 [givinostat]
Procedure, shortened: as §1

barasertib = compound: CCN(CCCOc1ccc2c(Nc3cc(CC(=O)Nc4cccc(F)c4)[nH]n3)ncnc2c1)CCOP(=O)(O)O [barasertib]
Procedure, shortened: as §1

[7] = compound: CC[C@@H]1C(=O)N(C)c2cnc(Nc3ccc(C(=O)NC4CCN(C)CC4)cc3OC)nc2N1C1CCCC1
Procedure, shortened: as §1

volasertib = compound: CC[C@@H]1C(=O)N(C)c2cnc(Nc3ccc(C(=O)N[C@H]4CC[C@H](N5CCN(CC6CC6)CC5)CC4)cc3OC)nc2N1C(C)C [volasertib]
Procedure, shortened: as §1

[8] = compound: CC[C@H](C)N1C=C(C2=C(C=C(C=C21)C3=CN=C(C=C3)N4CCNCC4)C(=O)NCC5=C(C=C(NC5=O)C)C)C
Procedure, shortened: as §1

epoxomicin = compound: CC[C@H](C)[C@@H](C(=O)N[C@@H]([C@@H](C)O)C(=O)N[C@@H](CC(C)C)C(=O)[C@]1(CO1)C)NC(=O)[C@H]([C@@H](C)CC)N(C)C(=O)C [epoxomicin]
Procedure, shortened: as §1

[9] = compound: CCn1cc(-c2ccnc3[nH]c(-c4cccc(CN(C)C)c4)cc23)c(-c2ccc(NC(=O)N(C)C)cc2)n1
Procedure, shortened: as §1

[10] = compound: CN(C)CC(=O)Nc1ccc2[nH]c(=O)c3ccccc3c2c1
Procedure, shortened: as §1

[11] = compound: CN1C2=C(C3=C1C(=O)N(N=C3)CC4=CC(=CC=C4)N)SC(=C2)S(=O)C
Procedure, shortened: as §1

[12] = compound: CN1CCC(CNc2ccc3ncc(-c4cccc(OC(F)(F)F)c4)n3n2)CC1
Procedure, shortened: as §1

rosiglitazone = compound: CN(CCOC1=CC=C(C=C1)C[C@H]2C(=O)NC(=O)S2)C3=CC=CC=N3 (racemic) [rosiglitazone]
Procedure, shortened: as §1

[13] = compound: CCn1c(C(=O)N(C2CC2)C2CC2)cc2c3c(ncn3C)c(Nc3cc(C)n(C)n3)nc21
Procedure, shortened: as §1

Target	log2 fold change [1]	log2 fold change [2]	log2 fold change [3]	log2 fold change [4]	log2 fold change (Nexturastat A)	log2 fold change (vemurafenib)	log2 fold change [5]	log2 fold change [6]	log2 fold change (givinostat)	log2 fold change (barasertib)	log2 fold change [7]	log2 fold change (volasertib)	log2 fold change [8]	log2 fold change (epoxomicin)	log2 fold change [9]	log2 fold change [10]	log2 fold change [11]	log2 fold change [12]	log2 fold change (rosiglitazone)	log2 fold change [13]
SMCHD1 (UniProt A6NHR9)	inactive: -0.067	inactive: 0	inactive: 0.089	inactive: -0.039	inactive: 0.126	inactive: 0.057	inactive: 0.141	inactive: 0.155	inactive: 0.101	inactive: -0.168	inactive: 0.009	inactive: -0.326	inactive: 0.098	inactive: -0.189	inactive: -0.085	inactive: 0.032	inactive: -0.023	inactive: -0.144	–	–
SLFN14 (UniProt P0C7P3)	inactive: -0.237	inactive: -0.222	inactive: -0.143	inactive: -0.477	inactive: -0.098	inactive: -0.533	inactive: -0.126	inactive: 0.054	–	inactive: 0.051	–	inactive: 0.424	inactive: -0.015	inactive: -0.26	inactive: 0.045	inactive: -0.286	inactive: 0.508	inactive: 0.029	inactive: -0.116	–
SMPD4 isoform 4 (UniProt Q9NXE4)	inactive: 0.022	inactive: -0.011	inactive: 0.075	inactive: 0.112	inactive: 0.075	inactive: 0.02	inactive: 0.058	inactive: -0.034	inactive: 0.066	inactive: 0.13	inactive: -0.067	inactive: -0.076	inactive: 0.068	inactive: -0.008	inactive: -0.081	inactive: 0.036	inactive: -0.075	active: -0.32	–	–
SMARCE1 (UniProt Q969G3)	inactive: -0.025	inactive: -0.058	inactive: -0.003	inactive: 0.074	inactive: 0.121	inactive: -0.123	inactive: 0.085	inactive: -0.522	inactive: 0.028	inactive: 0.042	inactive: -0.006	inactive: -0.125	inactive: 0.087	inactive: -0.033	inactive: 0.053	inactive: -0.036	inactive: 0.058	inactive: -0.045	–	–
SNX11 (UniProt Q9Y5W9)	inactive: -0.008	inactive: 0.012	inactive: -0.003	inactive: 0.043	inactive: 0.014	inactive: 0.043	inactive: 0.025	inactive: 0.022	inactive: -0.006	inactive: 0.019	inactive: -0.167	inactive: -0.324	inactive: 0.066	inactive: -0.031	inactive: -0.022	inactive: -0.024	inactive: 0.167	active: -0.646	–	–
SLIRP (UniProt Q9GZT3)	inactive: 0.175	inactive: 0.008	inactive: -0.035	inactive: 0.039	inactive: 0.286	inactive: 0.028	inactive: -0.031	inactive: 0.214	inactive: 0.113	inactive: 0.019	inactive: 0.05	inactive: 0.343	inactive: -0.093	inactive: 0.302	inactive: 0.02	inactive: 0.08	inactive: 0.092	inactive: 0.06	–	–
SNX5 (UniProt Q9Y5X3)	inactive: 0.001	inactive: 0.015	inactive: 0.009	inactive: 0.039	inactive: -0.074	inactive: 0.009	inactive: 0.035	inactive: -0.031	inactive: 0.013	inactive: 0.04	inactive: -0.136	inactive: -0.129	inactive: 0.076	inactive: 0.05	inactive: -0.099	inactive: 0.027	inactive: -0.001	active: -0.289	–	–
SLC9A1 (UniProt P19634)	inactive: 0.039	–	inactive: 0.006	inactive: 0.007	inactive: 0.056	inactive: 0.103	inactive: -0.1	inactive: 0.041	inactive: 0.081	inactive: 0.004	inactive: 0.059	inactive: -0.11	inactive: 0.001	inactive: -0.016	inactive: 0.014	inactive: -0.129	inactive: -0.046	inactive: -0.061	inactive: -0.011	inactive: -0.032
SP2 (UniProt Q02086)	inactive: -0.032	–	–	inactive: -0.122	–	–	–	–	–	–	inactive: -0.289	–	–	–	–	–	inactive: 0.372	–	–	–
SOS1 (UniProt Q07889)	inactive: -0.056	inactive: -0.049	–	inactive: -0.235	inactive: -0.007	–	–	inactive: -0.023	inactive: 0.108	inactive: -0.094	inactive: 0.064	–	inactive: 0.172	inactive: -0.015	–	–	–	–	inactive: 0.225	inactive: -0.032

Whole records from above. Values in the order: log2 fold change [1] | log2 fold change [2] | log2 fold change [3] | log2 fold change [4] | log2 fold change (Nexturastat A) | log2 fold change (vemurafenib) | log2 fold change [5] | log2 fold change [6] | log2 fold change (givinostat) | log2 fold change (barasertib) | log2 fold change [7] | log2 fold change (volasertib) | log2 fold change [8] | log2 fold change (epoxomicin) | log2 fold change [9] | log2 fold change [10] | log2 fold change [11] | log2 fold change [12] | log2 fold change (rosiglitazone) | log2 fold change [13]
SP2 (UniProt Q02086) in the list: inactive: -0.032 | – | – | inactive: -0.122 | – | – | – | – | – | – | inactive: -0.289 | – | – | – | – | – | inactive: 0.372 | – | – | –
SOS1 (UniProt Q07889) in the list: inactive: -0.056 | inactive: -0.049 | – | inactive: -0.235 | inactive: -0.007 | – | – | inactive: -0.023 | inactive: 0.108 | inactive: -0.094 | inactive: 0.064 | – | inactive: 0.172 | inactive: -0.015 | – | – | – | – | inactive: 0.225 | inactive: -0.032
